This assay concerns the target T1, uSLC35A4 protein with C-terminal Flag tag (human) (UniProt L0R6Q1).
T1 sequence: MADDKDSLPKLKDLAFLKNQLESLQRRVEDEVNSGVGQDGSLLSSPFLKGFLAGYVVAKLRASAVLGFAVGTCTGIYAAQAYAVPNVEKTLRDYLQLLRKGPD
The assay can be described thus: affinity purification with mass spectrometry; Flag-tagged ORF peptide expressed in HEK293T (48 h), lysed in 50 mM Tris HCl pH 7.4, 150 mM NaCl, 1 mM EDTA, 1% Triton X-100; anti-Flag M2 magnetic beads overnight at 4 °C; in-gel digestion, label-free quantification; empty vector as negative control, triplicate.

The chains behind the UniProt entries cited, without tags or fusion partners.
UniProt P21796: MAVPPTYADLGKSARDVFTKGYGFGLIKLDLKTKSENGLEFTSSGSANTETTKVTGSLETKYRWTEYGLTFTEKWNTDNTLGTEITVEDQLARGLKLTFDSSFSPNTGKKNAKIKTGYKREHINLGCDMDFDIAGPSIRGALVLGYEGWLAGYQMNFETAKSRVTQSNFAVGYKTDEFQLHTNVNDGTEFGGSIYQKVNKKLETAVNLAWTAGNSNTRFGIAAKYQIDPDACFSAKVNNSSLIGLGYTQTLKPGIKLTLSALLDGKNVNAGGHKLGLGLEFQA

Results are given in words; binding and its absence hold for the method and conditions named. Binding seen in cells or lysates may run through a third protein. A yes stands for co-enrichment or nearness to the bait. Other partners may have been found. Tags and fused reporters may be left off the sequences shown.

Turning to VDAC1 (from UniProt P21796 1-283), the binding result is listed as “binds”.
